# According to the supplement of paper PMC8728848:
# The list shows a part of the results.
# Key:
# Assay in all cases: glycan array binding signal (z-score within array); higher = stronger binding
# Conditions in all cases: glycan notation: IUPAC condensed, linker removed
# [1] = molecular target: Neu5Ac(a2-6)Gal(b1-4)GlcNAc(b1-2)Man(a1-3)[Man(a1-6)]Man(b1-4)GlcNAc(b1-4)GlcNAc
# Summary of the method: (§1)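 Negative Z-scores can be read as non-binding. The Z-score is calculated within each array and then averaged across arrays of one protein sequence at different concentrations or buffers and across linkers. Arrays, 3228 in all, were curated from the Consortium for Functional Glycomics database and kept only where the protein sequence was available.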
# [2] = molecular target: Neu5Ac(a2-6)Gal(b1-4)GlcNAc(b1-2)Man(a1-3)[Neu5Ac(a2-3)Gal(b1-4)GlcNAc(b1-2)Man(a1-6)]Man(b1-4)GlcNAc(b1-4)GlcNAc
# Summary of the method: as §1
# [3] = molecular target: Neu5Ac(a2-6)Gal(b1-4)GlcNAc(b1-2)Man(a1-3)[Neu5Ac(a2-6)Gal(b1-4)GlcNAc(b1-2)Man(a1-6)]Man(b1-4)GlcNAc(b1-4)GlcNAc
# Summary of the method: as §1
# [4] = molecular target: Neu5Ac(a2-6)Gal(b1-4)GlcNAc(b1-2)Man(a1-3)[Neu5Ac(a2-6)Gal(b1-4)GlcNAc(b1-2)Man(a1-6)]Man(b1-4)GlcNAc(b1-4)[Fuc(a1-6)]GlcNAc
# Summary of the method: as §1
# [5] = molecular target: Neu5Ac(a2-6)Gal(b1-4)GlcNAc(b1-2)Man(a1-6)Man(b1-4)GlcNAc(b1-4)GlcNAc
# Summary of the method: as §1
# [6] = molecular target: Neu5Ac(a2-6)Gal(b1-4)GlcNAc(b1-2)Man(a1-6)[Gal(b1-4)GlcNAc(b1-2)Man(a1-3)]Man(b1-4)GlcNAc(b1-4)GlcNAc
# Summary of the method: as §1
# [7] = molecular target: Neu5Ac(a2-6)Gal(b1-4)GlcNAc(b1-2)Man(a1-6)[GlcNAc(b1-2)Man(a1-3)]Man(b1-4)GlcNAc(b1-4)GlcNAc
# Summary of the method: as §1
# [8] = molecular target: Neu5Ac(a2-6)Gal(b1-4)GlcNAc(b1-2)Man(a1-6)[Man(a1-3)]Man(b1-4)GlcNAc(b1-4)GlcNAc
# Summary of the method: as §1
# [9] = molecular target: Neu5Ac(a2-6)Gal(b1-4)GlcNAc(b1-2)[Neu5Ac(a2-6)Gal(b1-4)GlcNAc(b1-4)]Man(a1-3)[GlcNAc(b1-4)][Neu5Ac(a2-6)Gal(b1-4)GlcNAc(b1-2)[Neu5Ac(a2-6)Gal(b1-4)GlcNAc(b1-6)]Man(a1-6)]Man(b1-4)GlcNAc(b1-4)GlcNAc
# Summary of the method: as §1
# [10] = molecular target: Neu5Ac(a2-6)Gal(b1-4)GlcNAc(b1-2)[Neu5Ac(a2-6)Gal(b1-4)GlcNAc(b1-4)]Man(a1-3)[GlcNAc(b1-4)][Neu5Ac(a2-6)Gal(b1-4)GlcNAc(b1-4)Man(a1-6)]Man(b1-4)GlcNAc(b1-4)GlcNAc
# Summary of the method: as §1
# [11] = molecular target: Neu5Ac(a2-6)Gal(b1-4)GlcNAc(b1-2)[Neu5Ac(a2-6)Gal(b1-4)GlcNAc(b1-6)]Man(a1-6)[Neu5Ac(a2-6)Gal(b1-4)GlcNAc(b1-2)Man(a1-3)][GlcNAc(b1-4)]Man(b1-4)GlcNAc(b1-4)GlcNAc
# Summary of the method: as §1
# [12] = molecular target: Neu5Ac(a2-6)Gal(b1-4)GlcNAc(b1-3)Gal(b1-3)GlcNAc
# Summary of the method: as §1
# [13] = molecular target: Neu5Ac(a2-6)Gal(b1-4)GlcNAc(b1-3)Gal(b1-4)GlcNAc
# Summary of the method: as §1
# [14] = molecular target: Neu5Ac(a2-6)Gal(b1-4)GlcNAc(b1-3)Gal(b1-4)GlcNAc(b1-2)Man(a1-3)[Neu5Ac(a2-6)Gal(b1-4)GlcNAc(b1-3)Gal(b1-4)GlcNAc(b1-2)Man(a1-6)]GalNAc
# Summary of the method: as §1
# [15] = molecular target: Neu5Ac(a2-6)Gal(b1-4)GlcNAc(b1-3)Gal(b1-4)GlcNAc(b1-3)Gal(b1-4)GlcNAc
# Summary of the method: as §1
# [16] = molecular target: Neu5Ac(a2-6)Gal(b1-4)GlcNAc(b1-3)Gal(b1-4)GlcNAc(b1-3)Gal(b1-4)GlcNAc(b1-2)Man(a1-3)[Neu5Ac(a2-6)Gal(b1-4)GlcNAc(b1-3)Gal(b1-4)GlcNAc(b1-3)Gal(b1-4)GlcNAc(b1-2)Man(a1-6)]GalNAc
# Summary of the method: as §1
# [17] = molecular target: Neu5Ac(a2-6)Gal(b1-4)GlcNAc(b1-3)Gal(b1-4)GlcNAc(b1-3)GalNAc
# Summary of the method: as §1
# [18] = molecular target: Neu5Ac(a2-6)Gal(b1-4)GlcNAc(b1-3)Gal(b1-4)GlcNAc(b1-3)[Neu5Ac(a2-6)Gal(b1-4)GlcNAc(b1-3)Gal(b1-4)GlcNAc(b1-6)]GalNAc
# Summary of the method: as §1
# [19] = molecular target: Neu5Ac(a2-6)Gal(b1-4)GlcNAc(b1-3)Gal(b1-4)GlcNAc(b1-6)[Gal(b1-3)]GalNAc
# Summary of the method: as §1
# [20] = molecular target: Neu5Ac(a2-6)Gal(b1-4)GlcNAc(b1-3)Gal(b1-4)[Fuc(a1-3)]GlcNAc(b1-3)Gal(b1-4)[Fuc(a1-3)]GlcNAc
# Summary of the method: as §1
# [21] = molecular target: Neu5Ac(a2-6)Gal(b1-4)GlcNAc(b1-3)GalNAc
# Summary of the method: as §1
# [22] = molecular target: Neu5Ac(a2-6)Gal(b1-4)GlcNAc(b1-3)[Neu5Ac(a2-6)Gal(b1-4)GlcNAc(b1-6)]GalNAc
# Summary of the method: as §1
# [23] = molecular target: Neu5Ac(a2-6)Gal(b1-4)GlcNAc(b1-6)GalNAc
# Summary of the method: as §1
# [24] = molecular target: Neu5Ac(a2-6)Gal(b1-4)GlcNAc(b1-6)[Gal(b1-3)GlcNAc(b1-3)]Gal(b1-4)Glc
# Summary of the method: as §1
# [25] = molecular target: Neu5Ac(a2-6)Gal(b1-4)GlcNAc(b1-6)[Gal(b1-3)]GalNAc
# Summary of the method: as §1
# [26] = molecular target: Neu5Ac(a2-6)Gal(b1-4)GlcNAc6S
# Summary of the method: as §1
# Neu5Ac(a2-6)GalNAc = molecular target: Neu5Ac(a2-6)GalNAc
# Summary of the method: as §1
# [27] = molecular target: Neu5Ac(a2-6)GalNAc(b1-4)GlcNAc
# Summary of the method: as §1
# [28] = molecular target: Neu5Ac(a2-6)GalNAc(b1-4)GlcNAc6S
# Summary of the method: as §1
# [29] = molecular target: Neu5Ac(a2-6)GlcNAc(b1-4)GlcNAc
# Summary of the method: as §1
# [30] = molecular target: Neu5Ac(a2-6)GlcNAc(b1-4)GlcNAc(b1-4)GlcNAc
# Summary of the method: as §1
binder,measurement,setting,value
PX14404-bvu-534-26-534 (Bacteroides vulgatus) (protein) EDPRGKLTPENFFSTQDELNMSIYALYQKVNLSQVYTNMQLPQWQGDDITTNPGSNKQPAAEMDKFAAANNNKGVKDAWNMHYAIVKAANLIIQGASKTPTTQDEINIALGQAKFWRAYAYFTLVRLWGPLPMNLDNVNDDYTKPLSPVEEVYGHIVQDLTEAEAVLPTGYSGSPRFLNGVNVYVTRQAAKSTLAAVYMAMAGWPMNKTEYYAKAAEKAKEVIEGVNRGEYEYKLDKDYKDVYAMSNNYNNETVLGINYSPFVDWAQDSELTSCNQFESLGGWGDAWGEIRFWKEFPDGPRKDATYDPKIRLKDGTLVDWWELKEDGTPVVPEHHPMFSIFSVNWDPASKVNTSAPYDYTKPASQNMCNDHRHRIIRYSEVLLWYAEAKARTGQTDELAFKCLNDVRERAGLEPLTGLSADDLAEAAYKEHGWEVAGYWVALVTRRADQFRMNRLKDTFKERAENTAVEVADGILVKESVEYTNRTWSDNLMYLPYPDMDSQKNPNLVR,glycan array binding signal (z-score),[1],0.469
same,glycan array binding signal (z-score),[2],-0.968
same,glycan array binding signal (z-score),[3],-0.576
same,glycan array binding signal (z-score),[4],0.449
same,glycan array binding signal (z-score),[5],-0.251
same,glycan array binding signal (z-score),[6],-1.11
same,glycan array binding signal (z-score),[7],-0.5
same,glycan array binding signal (z-score),[8],0.106
same,glycan array binding signal (z-score),[9],-0.206
same,glycan array binding signal (z-score),[10],-0.334
same,glycan array binding signal (z-score),[11],-0.278
same,glycan array binding signal (z-score),[12],-0.105
same,glycan array binding signal (z-score),[13],-0.138
same,glycan array binding signal (z-score),[14],0.347
same,glycan array binding signal (z-score),[15],-0.378
same,glycan array binding signal (z-score),[16],0.693
same,glycan array binding signal (z-score),[17],0.883
same,glycan array binding signal (z-score),[18],0.075
same,glycan array binding signal (z-score),[19],0.411
same,glycan array binding signal (z-score),[20],0.65
same,glycan array binding signal (z-score),[21],0.156
same,glycan array binding signal (z-score),[22],-0.736
same,glycan array binding signal (z-score),[23],0.144
same,glycan array binding signal (z-score),[24],-1.1
same,glycan array binding signal (z-score),[25],-0.496
same,glycan array binding signal (z-score),[26],0.022
same,glycan array binding signal (z-score),Neu5Ac(a2-6)GalNAc,0.186
same,glycan array binding signal (z-score),[27],0.298
same,glycan array binding signal (z-score),[28],1.39
same,glycan array binding signal (z-score),[29],-0.51
same,glycan array binding signal (z-score),[30],0.618

# 2 records drawn at random from those above:
binder,measurement,setting,value
PX14404-bvu-534-26-534 (Bacteroides vulgatus) (protein) EDPRGKLTPENFFSTQDELNMSIYALYQKVNLSQVYTNMQLPQWQGDDITTNPGSNKQPAAEMDKFAAANNNKGVKDAWNMHYAIVKAANLIIQGASKTPTTQDEINIALGQAKFWRAYAYFTLVRLWGPLPMNLDNVNDDYTKPLSPVEEVYGHIVQDLTEAEAVLPTGYSGSPRFLNGVNVYVTRQAAKSTLAAVYMAMAGWPMNKTEYYAKAAEKAKEVIEGVNRGEYEYKLDKDYKDVYAMSNNYNNETVLGINYSPFVDWAQDSELTSCNQFESLGGWGDAWGEIRFWKEFPDGPRKDATYDPKIRLKDGTLVDWWELKEDGTPVVPEHHPMFSIFSVNWDPASKVNTSAPYDYTKPASQNMCNDHRHRIIRYSEVLLWYAEAKARTGQTDELAFKCLNDVRERAGLEPLTGLSADDLAEAAYKEHGWEVAGYWVALVTRRADQFRMNRLKDTFKERAENTAVEVADGILVKESVEYTNRTWSDNLMYLPYPDMDSQKNPNLVR,glycan array binding signal (z-score),[8],0.106
same,glycan array binding signal (z-score),[28],1.39
